{
  "source": "a melting point compilation (Tetko et al.)",
  "data": [
    {"smiles": "CCC[C@H](NC(=O)OC(C)(C)C)C(=O)O", "values": [
      {"measurement": "melting point", "result": "43 to 47", "unit": "°C"}
    ]}
  ]
}
